Entries after “also recorded” stand apart in the source; their conditions may differ. For at least one compound, name, drawing or mass did not settle the structure.
Assays:
Type in all cases: in vivo, human
[1] = test system: healthy subjects; assay: CANTAB One Touch Stockings (OTSPSFC); details: 10 mg and 25 mg, Day 7
[2] = test system: healthy subjects; assay: Symptom Checklist-90 item (SCL-90); details: 10 mg and 25 mg, Day 7 or Day 84
From the text: In some embodiments, the Symptom Checklist-90 item (SCL-90) questionnaire is used to evaluate the safety and/or efficacy of psilocybin. The SCL-90 is a relatively brief self-report psychometric instrument designed to evaluate a broad range of psychological problems and symptoms of psychopathology. In some embodiments, the SCL-90 is used to assess somatization, obsessive-compulsive behaviors, interpersonal sensitivity, depression, anxiety, hostility, phobic anxiety, paranoid ideation, and psychoticism of a subject treated according to the methods of the disclosure. The 90 items in the questionnaire are scored on a 5-point Likert scale, indicating the rate of occurrence of the symptom during the time reference. In some embodiments, after treating according to the methods of the disclosure, a subject's SCL-90 score decreases by about 5% to about 100%, for example, by about 5%, about 10%, about 15%, about 20%, about 25%, about 30%, about 35%, about 40%, about 45%, about 50%, about 55%, about 60%, about 65%, about 70%, about 75%, about 80%, about 85%, about 90%, about 95%, or about 100%.
The Neuroticism Extraversion Openness-Five Factor Inventory (NEO-FFI) and Symptom Checklist-90 Item (SCL-90) were administered. Details of the MMRM applied to the change from baseline scores for the NEO-FFI and SCL-90 are provided below in Table 28.

[3] = test system: healthy subjects; assay: CANTAB Intra-Extra Dimensional Set Shift (IEDYERT); details: 10 mg and 25 mg, Day 7
[4] = test system: healthy subjects; assay: Verbal fluency test; details: Day 7 (Visit 5)
[5] = test system: healthy subjects; assay: Scale of Social Responsibility (SSR); details: 10 mg and 25 mg, Day 7 and Day 84
Method: In some embodiments, the Scale of Social Responsibility (SSR) is utilized to evaluate the safety and/or efficacy of psilocybin. The SSR measures perceptions regarding the importance of ethics and social responsibility.
The following list of outcome measures are non-exhaustive. • a. The short-term change from Baseline (Day −1 [Visit 2]) to Day 7 (Visit 5) in cognitive measures of attention, spatial and working memory and executive function was measured by a composite score of the CANTAB Panel (Spatial Working Memory [SWM], Rapid Visual Information Processing [RVP], Paired Associates Learning [PAL]). • b. The short-term change from Baseline (Day −1 [Visit 2]) to Day 7 (Visit 5) in Social Cognition Panel scales (Pictorial Empathy Test [PET], Reading the Mind in the Eyes Test [RMET], Toronto Empathy Questionnaire [TEQ], Social Value Orientation [SVO], Scale of Social Responsibility [SSR]). • c. The change from Baseline (Day −1 [Visit 2]) to Day 28 (Visit 6) in cognitive measures of attention, spatial and working memory and executive function as measured by a composite score of the CANTAB Panel (SWM, RVP, PAL). • d. […] Dose-related differences between cognitive effects of psilocybin at Baseline (Day −1 [Visit 2]), Day 7 (Visit 5) and Day 28 (Visit 6), as measured by a composite score of the CANTAB Panel (SWM, RVP, PAL). • f. […]

[6] = test system: healthy subjects; assay: Positive and Negative Affect Schedule (PANAS)
[7] = test system: healthy subjects; assay: CANTAB Spatial Working Memory between errors (SWMBE)

CN(C)CCc1c[nH]c2cccc(OP(=O)(O)O)c12 [psilocybin]
OTSPSFC, difference from placebo and between doses [1]: insufficient evidence of a difference; also recorded: No significant difference in performance
SCL 90 scales, changes [2]: no detectable effect
IEDYERT, difference from placebo and between doses [3]: No significant difference in performance
Verbal fluency score compared to placebo ([4]; 10 mg, p-value 0.7635): No statistically significant difference
Verbal fluency score compared to placebo ([4]; 25 mg, p-value 0.8412): No statistically significant difference
SSR, change from baseline compared to placebo [5]: No differences among treatment groups; also recorded: no difference; also recorded: no consistent or noteworthy trends
PANAS Positive Affect, reduction from baseline to the day of dosing (seen with placebo) ([6]; 10 mg and 25 mg groups, p<0.03): not observed in the psilocybin groups
PANAS negative affect, mean change from baseline ([6]; 10 mg, Day 0): slight decrease
PANAS change, impact of prior psilocybin experience ([6]; in vivo): did not have a significant impact
PANAS positive affect, change pre- to post-treatment: effect of treatment ([6]; p=0.02): an effect of treatment was observed
PANAS negative affect, change pre- to post-treatment: effect of treatment ([6]; p=0.0604): not for negative affect
SWMBE, performance Baseline to Day 28 ([7]; 10 mg): improved less
SWMBE, LS mean difference from placebo ([7]; 10 mg, Day 7 and Day 28): performed less well on average than the placebo group
SWMBE, LS mean difference from placebo ([7]; 25 mg, Day 28): performs similarly to the placebo group

Reference: patent US11865126B2, “Method for treating anxiety disorders, headache disorders, and eating disorders with psilocybin” (priority 2019, dated 2024)
